In PMC5963859:

System: GST-MBNL1-HIS
Assay: fluorescence polarization
Settings: 50 nM RNA, 400 nM protein (optimal shift); recombinant protein

Question: Does “CUGCUGCUGCUGCUGCUGCUGCUGCUGCUGCUGCUGCUGCUGCUGCUGCUGCUGCUGCUGCUGCUGCUGCUGCUGCUG [TRITC-(CUG)26 RNA]” bind?
Answer: binds

Construct, isoform or probe ends are uncertain for at least one entry.
